2 substances from PMC12818747 can be followed below.

Amino acid sequences for entries named in this document (tags omitted). Residues count along the entry.
UniProt P63165, residues 1-97: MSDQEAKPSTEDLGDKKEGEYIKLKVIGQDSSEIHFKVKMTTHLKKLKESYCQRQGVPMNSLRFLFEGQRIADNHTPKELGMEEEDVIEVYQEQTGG
UniProt P63166, residues 1-97: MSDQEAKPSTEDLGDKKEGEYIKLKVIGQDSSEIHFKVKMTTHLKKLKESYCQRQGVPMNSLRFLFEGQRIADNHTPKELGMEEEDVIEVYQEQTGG
UniProt Q13485: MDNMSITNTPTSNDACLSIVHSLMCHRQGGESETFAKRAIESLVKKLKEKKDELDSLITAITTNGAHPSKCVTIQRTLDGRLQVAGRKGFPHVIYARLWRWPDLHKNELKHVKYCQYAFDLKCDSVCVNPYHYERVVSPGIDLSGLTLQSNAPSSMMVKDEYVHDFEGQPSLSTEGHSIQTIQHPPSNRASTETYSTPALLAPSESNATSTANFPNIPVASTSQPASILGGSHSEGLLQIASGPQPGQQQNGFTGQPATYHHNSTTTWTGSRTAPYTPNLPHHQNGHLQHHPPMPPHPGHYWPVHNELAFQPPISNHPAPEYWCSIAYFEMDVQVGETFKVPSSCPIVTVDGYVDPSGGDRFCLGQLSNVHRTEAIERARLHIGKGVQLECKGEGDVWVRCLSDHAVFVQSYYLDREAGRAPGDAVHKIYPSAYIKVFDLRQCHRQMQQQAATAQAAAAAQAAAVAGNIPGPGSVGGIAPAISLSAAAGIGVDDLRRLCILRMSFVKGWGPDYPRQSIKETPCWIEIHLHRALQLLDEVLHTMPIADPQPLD
UniProt P97471: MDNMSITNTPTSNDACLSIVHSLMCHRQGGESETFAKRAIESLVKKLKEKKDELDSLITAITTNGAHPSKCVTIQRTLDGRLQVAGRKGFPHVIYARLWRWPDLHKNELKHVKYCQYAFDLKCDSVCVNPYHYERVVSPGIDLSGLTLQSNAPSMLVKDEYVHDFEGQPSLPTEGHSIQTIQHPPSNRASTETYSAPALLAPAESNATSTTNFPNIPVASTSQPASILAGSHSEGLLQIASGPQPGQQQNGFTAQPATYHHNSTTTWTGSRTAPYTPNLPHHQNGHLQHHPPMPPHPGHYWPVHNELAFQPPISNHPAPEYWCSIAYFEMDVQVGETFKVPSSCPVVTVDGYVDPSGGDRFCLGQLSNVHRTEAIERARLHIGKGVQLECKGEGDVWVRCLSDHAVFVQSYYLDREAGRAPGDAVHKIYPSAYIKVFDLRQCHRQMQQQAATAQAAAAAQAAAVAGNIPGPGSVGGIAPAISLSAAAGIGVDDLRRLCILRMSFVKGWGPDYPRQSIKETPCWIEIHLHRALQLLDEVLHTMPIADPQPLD

Results are given in words; binding and its absence hold for the method and conditions named. Binding seen in cells or lysates may run through a third protein. Some results given as binding are weak or reduced against the parent protein; the word gives no strength.

For experiment [1], the target named is SUMO1 (human) (human (endogenous in THP-1)) (UniProt P63165). Briefly: co-IP; THP-1 cells treated with LPS (1 ug/mL), EgCF (1 mg/mL) and GA (10 nM) for 12 h, also with SENP1 siRNA knock-down; RIPA lysate; IP with anti-SUMO1 antibody or mouse IgG control, protein A/G magnetic beads, Western blot for Smad4.
Experiment [2] has as its target SUMO1 (mouse) (mouse (endogenous in C57BL/6 liver and RAW 264.7)) (UniProt P63166). Briefly: co-IP; RAW 264.7 cells treated with LPS (1 ug/mL), EgCF (1 mg/mL) and GA (10 nM) for 12 h; RIPA lysate; IP with anti-SUMO1 antibody or mouse IgG control, protein A/G magnetic beads, Western blot for Smad4. Background: Immunoblotting shows a protein as a band on a membrane.
Experiment [3] has the same target. Briefly: co-IP; total protein of peri-lesion and adjacent normal liver of CE and CE + GA mice; RIPA lysate; IP with anti-SUMO1 antibody or mouse IgG control, protein A/G magnetic beads, Western blot for Smad4.

For “Smad4 (human) (from UniProt Q13485 1-552)”, the binding entry in experiment [1] is on record as “binds”.

Turning to “Smad4 (mouse) (from UniProt P97471 1-551)”, the binding entry in experiment [2] and in experiment [3] was “binds” each time.
